Data: patent US20220110902A1, “Methods of treating amyloid-beta peptide diseases” (Ecole Polytechnique Federale de Lausanne, priority 2016, published 2022)
At least one structure is not confirmed: it was looked up by name or label, or the drawing left a doubt.

System: CL2122 worms
Assay: Transcript analysis of the MSR in CL2122 control worms
Assay type: in vivo, C. elegans
Conditions: CL2122, day 1 of adulthood; dox 15 μg/mL, NR 1 mM, AZD 0.3 μM
Protocol: C. elegans: A total of ˜3000 worms per condition, divided in 3 biological replicates, was recovered in M9 buffer from NGM plates and lysed in the TriPure RNA reagent. Each experiment was repeated twice. Total RNA was transcribed to cDNA using QuantiTect Reverse Transcription Kit (Qiagen). Expression of selected genes was analyzed using the LightCycler480 system (Roche) and LightCycler® 480 SYBR Green I Master reagent (Roche). For C. elegans, 2 housekeeping genes were used to normalize the expression data, namely actin (act-1) and peroxisomal membrane protein 3 (pmp-3).
atfs-1p::atfs-1 expression vector was created by amplifying 1488 bp sequence upstream from the transcription start site of atfs-1 coding region by using worm genomic DNA for the promoter region. […] The correctness of the atfs-1p::atfs-1 construct was assessed by sequencing with the indicated pPD30.38 and atfs-1 seq. primers. Two independent GMC101 lines (AUW9 and AUW10), and one CL2122 strain (AUW11) carrying atfs-1p::atfs-1 transgene as extrachromosomal array were analyzed in the study. […] The deriving F1 worms were shifted from 20° C. to 25° C. at the L4 stage to induce amyloid accumulation and paralysis, and phenotypes assessed over time as indicated. […]

C[C@H]1c2cccc(O)c2C(=O)C2=C(O)[C@]3(O)C(=O)C(C(N)=O)=C(O)[C@@H](N(C)C)[C@@H]3[C@@H](O)[C@@H]21 [dox, doxycycline]
MSR transcripts in control strain: similarly induced these pathways
